No constants are given. Whether binding was seen depends on the method and setting. Binding seen in cells or lysates may run through a third protein. Some results given as binding are weak or reduced against the parent protein; the word gives no strength.

Sequences of proteins named here, by UniProt entry; tags and fusion partners are left off. A change or cut given only in a name is not applied to a line headed by its entry. A line that says so, or that is headed by a name, gives the form on record, which may keep a tag or linker.
UniProt P01108: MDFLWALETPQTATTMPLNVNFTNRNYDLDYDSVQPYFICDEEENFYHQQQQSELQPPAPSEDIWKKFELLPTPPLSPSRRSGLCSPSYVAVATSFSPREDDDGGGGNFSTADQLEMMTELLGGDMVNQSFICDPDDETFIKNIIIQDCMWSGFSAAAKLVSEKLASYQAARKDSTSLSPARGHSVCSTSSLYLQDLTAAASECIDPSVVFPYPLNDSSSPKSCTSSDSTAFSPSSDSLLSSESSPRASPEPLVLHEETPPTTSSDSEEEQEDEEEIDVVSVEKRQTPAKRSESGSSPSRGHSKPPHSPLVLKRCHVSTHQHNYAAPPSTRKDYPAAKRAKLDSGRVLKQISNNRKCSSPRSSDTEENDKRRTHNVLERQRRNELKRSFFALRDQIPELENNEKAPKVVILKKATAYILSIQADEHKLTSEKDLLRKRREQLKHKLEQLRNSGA
UniProt Q9Y265: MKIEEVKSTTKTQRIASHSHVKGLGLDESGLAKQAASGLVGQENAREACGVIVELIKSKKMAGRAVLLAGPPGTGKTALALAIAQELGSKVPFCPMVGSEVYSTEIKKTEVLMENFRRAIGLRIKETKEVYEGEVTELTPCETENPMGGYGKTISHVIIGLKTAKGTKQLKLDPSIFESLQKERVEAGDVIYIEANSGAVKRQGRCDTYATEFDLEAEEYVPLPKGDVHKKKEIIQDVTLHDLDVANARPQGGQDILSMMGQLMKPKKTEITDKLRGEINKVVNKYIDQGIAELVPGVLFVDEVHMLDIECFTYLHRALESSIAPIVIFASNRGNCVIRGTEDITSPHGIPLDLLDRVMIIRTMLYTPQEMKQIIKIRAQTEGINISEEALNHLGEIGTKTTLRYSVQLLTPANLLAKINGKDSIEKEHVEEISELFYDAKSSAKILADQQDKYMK
RUVBL1^Δ94-118 (Q9Y265, form named): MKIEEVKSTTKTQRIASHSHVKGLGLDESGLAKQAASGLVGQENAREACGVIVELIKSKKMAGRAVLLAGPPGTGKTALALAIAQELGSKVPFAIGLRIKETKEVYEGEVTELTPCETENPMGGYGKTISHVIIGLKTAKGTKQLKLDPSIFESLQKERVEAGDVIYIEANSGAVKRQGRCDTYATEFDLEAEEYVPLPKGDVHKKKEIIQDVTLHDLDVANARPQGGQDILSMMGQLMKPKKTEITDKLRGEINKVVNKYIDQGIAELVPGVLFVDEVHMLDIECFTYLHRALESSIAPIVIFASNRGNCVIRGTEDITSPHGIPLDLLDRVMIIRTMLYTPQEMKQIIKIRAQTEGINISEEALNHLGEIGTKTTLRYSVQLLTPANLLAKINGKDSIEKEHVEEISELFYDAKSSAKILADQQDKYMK
RUVBL1^Δ102-107 (Q9Y265, form named): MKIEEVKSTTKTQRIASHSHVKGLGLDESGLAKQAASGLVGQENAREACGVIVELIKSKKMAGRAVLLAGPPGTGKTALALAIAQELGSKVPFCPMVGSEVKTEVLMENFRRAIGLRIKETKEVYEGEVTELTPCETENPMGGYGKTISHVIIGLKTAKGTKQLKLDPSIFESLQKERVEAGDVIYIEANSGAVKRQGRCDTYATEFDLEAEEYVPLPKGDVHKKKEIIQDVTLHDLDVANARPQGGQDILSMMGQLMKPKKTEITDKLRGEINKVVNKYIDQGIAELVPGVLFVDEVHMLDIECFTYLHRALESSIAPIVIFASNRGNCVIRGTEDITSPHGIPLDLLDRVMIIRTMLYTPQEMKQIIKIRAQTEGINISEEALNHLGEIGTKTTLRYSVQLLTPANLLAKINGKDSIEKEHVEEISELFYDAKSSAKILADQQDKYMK

The target of the experiment is MYC (UniProt P01108). Nature of the experiment: co-IP; co-immunoprecipitation in KPC cells expressing RUVBL1 variants; which partner was precipitated is not told.
For the substance “RUVBL1^WT (from UniProt Q9Y265 1-456) (enzyme)”, the binding entry was “binds”.

In the case of “RUVBL1^Δ94-118 (from UniProt Q9Y265 1-456) (enzyme)”, the binding result is on record as “no binding”.

Consider “RUVBL1^Δ102-107 (from UniProt Q9Y265 1-456) (enzyme)”, for which the binding entry is reported as “no binding”.
